The nature of this data set: in vivo. The conditions noted are these: iv.

For the compound `CCN(CC)CC(=O)Nc1c(C)cccc1C` [Lidocaine, lidocaine], the LD50 worked out at 39.4 mg/kg.
